Measured values as given in article PMC6547421.
Construct, isoform or probe ends are uncertain for at least one entry. At least one verdict was read from the data and is not stated in words by the source.

By UniProt entry, the sequences of proteins in these tests, tags left out. Residues count along the entry.
UniProt Q9Y2C4, 42-368 H140A/C299A: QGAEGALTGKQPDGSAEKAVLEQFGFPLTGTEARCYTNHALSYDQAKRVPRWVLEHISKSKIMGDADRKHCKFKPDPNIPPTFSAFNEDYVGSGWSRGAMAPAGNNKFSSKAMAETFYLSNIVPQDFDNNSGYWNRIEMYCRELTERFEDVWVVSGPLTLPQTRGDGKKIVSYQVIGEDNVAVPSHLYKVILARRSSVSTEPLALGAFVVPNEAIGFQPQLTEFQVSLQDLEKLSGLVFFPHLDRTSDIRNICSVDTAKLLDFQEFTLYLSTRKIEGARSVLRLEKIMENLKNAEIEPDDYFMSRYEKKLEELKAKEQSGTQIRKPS

Target: ExoG-H140A/C299A (Homo sapiens) (UniProt Q9Y2C4)
Test: fluorescence polarization
Settings: 2.5 mM Mg2+, no notable change vs H140A, Kd only in figure, FP: 10 nM FAM substrate, 10 mM HEPES pH 7.4, 150 mM NaCl, 2.5 mM MgCl2, temperature not stated, recombinant protein, protein details: N-terminal His, label: 3'-FAM strand 1, 5'-biotin strand 2

Does “GCUUAACGCUGACUCGCUAC / GTAGCGAGTCAGCGTTAAGCACTATCATAGCCATCTGCCATTACTG [RNA/DNA]” bind (strand 1 RNA with 5'-phosphate, strand 2 DNA, DNA:RNA hybrid)?
Result: binds

Does “GCTTAACGCTGACTCGCTAC / GTAGCGAGTCAGCGTTAAGCACTATCATAGCCATCTGCCATTACTG [R2-DNA/DNA]” bind (strand 1 nt 1-2 (GC) are ribonucleotides, rest DNA, 5'-phosphate on strand 1)?
Result: binds

Does “GCTTAACGCTGACTCGCTAC / GTAGCGAGTCAGCGTTAAGCACTATCATAGCCATCTGCCATTACTG [DNA/DNA]” bind (5'-phosphate on strand 1)?
Result: binds
